PubChem BioAssay AID1224828 | NIAID, 2016

Purpose: 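Find genes required for NF-kappaB p65 moving into the nucleus after LPS in mouse macrophages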 (primary screen)
System: mouse RAW264.7 G9 macrophage reporter cells (GFP-p65, Tnf promoter-mCherry)
Reagent: siRNA pool against mouse genes, 100 nM
Time to read-out: 2 days siRNA transfection, then 40 min LPS before fixation
Conditions: LPS (Salmonella minnesota R595) at 10 ng/ml
Measured: 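Imaged p65 nuclear translocation ratio, normalised to the plate median, converted to robust z-scores and averaged across two replicates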
Reading the numbers: p65 translocation robust z-score: higher = more nuclear NF-kappaB p65 after LPS than the plate median; nuclear/cytoplasmic p65 ratio: higher = more nuclear NF-kappaB p65
Rule for the call: 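Active if robust z is above 3.3 (negative regulators) or below -1.56, the Tlr4 control median (positive regulators); activity score 50 or more; control wells not called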
Calls: active = hit (p65 shift raised or lowered); inactive = no clear change
Shown is one part, drawn at random, of about 17,000 deposited reagents. Of all reagents, 762 (4.5%) were called active. 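Active calls include both raised and lowered p65 entry, mostly lowered; wells with fewer than 50 cells lack a z-score.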 The raw values are shown without normalisation.

For Sdf4 (stromal cell derived factor 4), what was measured?
nuclear/cytoplasmic p65 ratio, rep 1: 1.4; nuclear/cytoplasmic p65 ratio, rep 2: 1.09; low cell count flag: fewer than 50 cells per well; well left out of scoring; call: inactive

With B430217B02Rik (retired record), what was measured?
p65 translocation robust z-score: -0.55; nuclear/cytoplasmic p65 ratio, rep 1: 1.58; nuclear/cytoplasmic p65 ratio, rep 2: 1.65; low cell count flag: enough cells to score; call: inactive

What is on record for Nmt2 (N-myristoyltransferase 2)?
p65 translocation robust z-score: 1.66; nuclear/cytoplasmic p65 ratio, rep 1: 1.96; nuclear/cytoplasmic p65 ratio, rep 2: 1.78; low cell count flag: enough cells to score; call: inactive

How did the screen score Taf5 (TATA-box binding protein associated factor 5)?
p65 translocation robust z-score: -0.41; nuclear/cytoplasmic p65 ratio, rep 1: 1.47; nuclear/cytoplasmic p65 ratio, rep 2: 1.45; low cell count flag: enough cells to score; call: inactive

With Camkv (CaM kinase-like vesicle-associated), how do the results read?
p65 translocation robust z-score: 0.22; nuclear/cytoplasmic p65 ratio, rep 1: 1.65; nuclear/cytoplasmic p65 ratio, rep 2: 1.47; low cell count flag: enough cells to score; call: inactive

What is on record for Dlx6 (distal-less homeobox 6)?
p65 translocation robust z-score: -1.91; nuclear/cytoplasmic p65 ratio, rep 1: 1.21; nuclear/cytoplasmic p65 ratio, rep 2: 1.14; low cell count flag: enough cells to score; call: active

What did the screen give for Rps24 (ribosomal protein S24)?
nuclear/cytoplasmic p65 ratio, rep 1: 1.32; nuclear/cytoplasmic p65 ratio, rep 2: 1.09; low cell count flag: fewer than 50 cells per well; well left out of scoring; call: inactive

With Trim28 (tripartite motif-containing 28), what was measured?
p65 translocation robust z-score: 0.76; nuclear/cytoplasmic p65 ratio, rep 1: 1.55; nuclear/cytoplasmic p65 ratio, rep 2: 1.67; low cell count flag: enough cells to score; call: inactive

Which result is listed for Ash1l (ASH1 like histone lysine methyltransferase)?
p65 translocation robust z-score: -0.39; nuclear/cytoplasmic p65 ratio, rep 1: 1.6; nuclear/cytoplasmic p65 ratio, rep 2: 1.52; low cell count flag: enough cells to score; call: inactive

With Slc36a4, what does the deposit list?
nuclear/cytoplasmic p65 ratio, rep 1: 1.25; nuclear/cytoplasmic p65 ratio, rep 2: 0.968; low cell count flag: fewer than 50 cells per well; well left out of scoring; call: inactive

What is on record for Rexo4 (REX4, 3'-5' exonuclease)?
p65 translocation robust z-score: 1.45; nuclear/cytoplasmic p65 ratio, rep 1: 1.94; nuclear/cytoplasmic p65 ratio, rep 2: 1.68; low cell count flag: enough cells to score; call: inactive

For Trub1 (TruB pseudouridine (psi) synthase family member 1), what was measured?
p65 translocation robust z-score: -0.39; nuclear/cytoplasmic p65 ratio, rep 1: 1.34; nuclear/cytoplasmic p65 ratio, rep 2: 1.42; low cell count flag: enough cells to score; call: inactive
